Source: patent publication US20040048243A1, “Methods and compositions for in vitro targeting” (priority 2003, published 2004)
No constants are given. Whether binding was seen depends on the method and setting. Some entries that bind do so weakly or less than the wild type.

By UniProt entry, the sequences of proteins in these tests, tags left out. Residues count along the entry.
UniProt P00747, residues 98-357: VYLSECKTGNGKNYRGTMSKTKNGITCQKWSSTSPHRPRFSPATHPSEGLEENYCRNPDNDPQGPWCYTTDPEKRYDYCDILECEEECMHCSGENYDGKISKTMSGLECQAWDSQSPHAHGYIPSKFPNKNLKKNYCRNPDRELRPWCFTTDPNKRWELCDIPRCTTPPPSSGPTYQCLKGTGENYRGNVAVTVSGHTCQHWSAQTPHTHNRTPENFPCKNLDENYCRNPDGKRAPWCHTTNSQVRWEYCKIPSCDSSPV

The binders below were run against rhAngiostatin (human, UniProt P00747 98-357, limits assumed) (assay: phage panning on coated rhAngiostatin; table: sequences displayed by phage binding rh Angiostatin).
In the case of CSLQGIVGC, the binding is reported as “binds”. In the case of CGGREFWLC, the binding is reported as “binds”. For CQGKFSQRC, the binding was “binds”. In the case of CWSLEVAKC, the binding is reported as “binds”. CSRSVSRLC was tested, and the binding was “binds”. In the case of CWSLELSKC, the binding is reported as “binds”. With CYGAWRVSC the binding was “binds”. CWSLELLKC was tested, and the binding was “binds”. With CWSLESLKC the binding was “binds”. In the case of CWSAEWTKC, the binding is reported as “binds”. For CRWSSMIWC, the binding was “binds”. CWSLEFTKC was tested, and the binding was “binds”. In the case of CVAADRYVC, the binding is reported as “binds”. CGVVSRVGC was tested, and the binding was “binds”. CLAWVGGRC was tested, and the binding was “binds”. With CRVLADRDC the binding was “binds”.
